Data published in article PMC10540051.
These are yes or no findings as the source states them, for the method shown. Binding seen in cells or lysates may run through a third protein. Binding can be weak; no strength is given. Tags and fused reporters may be left off the sequences shown.

Columns and labels:
Assay in all cases: FRET or BRET; FLIM: HeLa cells transfected with BDNF-GFP (donor) cocultured with HeLa, HEK293 or SH-SY5Y cells transfected with tdTomato-tagged receptors or tdTomato-GluA2 (acceptor), fixed with 4% PFA; lifetime of GFP measured pixel by pixel; reference: HeLa cells expressing BDNF-GFP alone
SorCS2-tdTomato (murine) = target: SorCS2-tdTomato (murine)
SorCS3-tdTomato (human) = target: SorCS3-tdTomato (human)
SorLA-tdTomato (human) = target: SorLA-tdTomato (human)
SorCS1b-tdTomato (human) = target: SorCS1b-tdTomato (human)
[1] = target: SorCS1c-α-tdTomato (human)

Measured: binding

B1: BDNF-GFP (ligand, UniProt P23560 19-247)
chain: APMKEANIRGQGGLAYPGVRTHGTLESVNGPKAGSRGLTSLADTFEHVIEELLDEDQKVRPNEENNKDADLYTSRVMLSSQVPLEPPLLFLLEEYKNYLDAANMSMRVRRHSDPARRGELSVCDSISEWVTAADKKTAVDMSGGTVTVLEKVPVSKGQLKQYFYETKCNPMGYTKEGCRGIDKRHWNSQCRTTQSYVRALTMDSKKRIGWRFIRIDTSCVCTLTIKRGR
binds: all assays above
